The values that follow come from PubChem BioAssay (NCATS).

SMILES strings stand for the structures. “And” between values parts separate entries of the source, which are not always exact repeats. Identical values can stand only once. The list shows a part of the results. Shown are side measurements of this screen, not its main read-out; they come without a call. Most of these compounds were active or inconclusive in the main read-out, so they are no random draw. For part of these data: Potencies come from curve fits of mixed quality, noted in brackets.

The nature of experiment [1]: A High-Content qHTS Against Drug Library for the Identification of Small Molecules that Inhibit DYT1 Early Onset Primary Dystonia-Associated Cell Pathology (AID 1645839). The note with it: HEK293 Flp-In EGFP-delE TorsinA, punctate imaging, 48 h; measured here: cell count cytotoxicity. An outline of the steps: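 Induced EGFP-delE TorsinA cells are imaged after 48 h of compound treatment. Punctate fusion-protein distribution gives the %pathology value, while nuclei counts flag toxicity. Wild-type EGFP-hTOR1A cells define the normal pattern.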
Background: Quantitative high-throughput screening tests each substance at several concentrations.

Experiment [2] is described as follows: qHTS for identification of novel therapeutic agents for treatment of microphthalmiaassociated transcription factor (MiT) renal cell carcinoma (RCC) (AID 1963991). The note with it: CellTiter-Glo, 48 h; for z-score: stronger effect = lower value. An outline of the steps:
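Viability of three TFE3-fusion renal carcinoma lines measured by CellTiter-Glo after 48 h treatment with each of 1912 compounds at 11 concentrations. Responses scaled between DMSO (100%) and empty wells (0%) before curve fitting.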

Experiment [3] can be described thus: S16 Schwann cell PMP22 intronic element beta-lactamase assay (AID 624044). Conditions: S16 rat Schwann cells, PMP22 element beta-lactamase FRET, 24 h. An outline of the steps: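 Beta-lactamase reporter under a PMP22 intronic regulatory element in stable S16 rat Schwann cells; 24 h compound exposure. 460 nm blue signal normalized between DMSO (0%) and potassium clavulanate, with 535 nm FRET tracking viability; curves classed by r2 and response.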

The nature of experiment [4]: qHTS Assay for Modulators of Human Peripheral Myelin Protein 22 (PMP22) Expression/Activity (AID 1967). Conditions: Cell-based PMP22 reporter, dual-color luciferase ratio. An outline of the steps:
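Quantitative HTS in a mouse Schwann cell line expressing dual click beetle luciferases: Pmp22 promoter (green) and control EF-alpha promoter (red). After 24h treatment, corrected green/red signal ratio gave %Activity relative to untreated cells.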

The nature of experiment [5]: qHTS assay for small molecule antagonists of peroxisome proliferator-activated receptor delta signaling (AID 588535).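 Also: cells co-treated with a PPAR-delta agonist as stimulator during compound exposure.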 The note with it: HEK293T PPARd-UAS-bla, beta-lactamase FRET ratio, 18 h; 460 nm channel. An outline of the steps: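 Compounds tested in titration on PPAR-delta-UAS-bla HEK293T cells grown in charcoal/dextran-stripped serum (2%); beta-lactamase activity read via CCF4 emission at 460 and 530 nm.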

The nature of experiment [6]: qHTS assay for small molecule antagonists of glucocorticoid receptor signaling (AID 588533). The note with it: HeLa MMTV-bla, GRE beta-lactamase ratio, antagonist mode, 18 h; measured here: W530 channel AC50.
The nature of experiment [7]: qHTS assay for small molecule agonists of retinoid X receptor alpha signaling (AID 588544). The note with it: HEK293T RXRa-UAS-bla, beta-lactamase reporter, 18 h; 530 nm emission.
A short description of experiment [8]: qHTS assay for small molecule antagonists of peroxisome proliferator-activated receptor gamma signaling (AID 588537). The note with it: HEK293 PPARg-UAS-bla, beta-lactamase ratio, antagonist mode; measured here: W460 blue channel. An outline of the steps: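 HEK293 cells, PPAR-gamma-UAS-bla, 3000/well. Pre-incubation 6-6.5 h, 37 C. Compound titration with rosiglitazone 50 nM final, 16 h. CCF4 dye, 2 h RT, dual-emission fluorescence.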

Experiment [9] is described as follows: qHTS Validation Assay to Find Inhibitors of Chronic Active B-Cell Receptor Signaling (AID 485345). The note with it: ABC-DLBCL cells, chronic BCR signaling reporter. Put shortly:
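TMD8 ABC-DLBCL cells with dox-inducible green luciferase–IκBα fusion and red native luciferase; compounds 46 uM–3 nM, 4 h at 37C with doxycycline in 0.5% FBS IMDM. Green/red ratio normalized to basal and 10 uM MG-132.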

Experiment [10] can be described thus: qHTS assay for small molecule antagonists of androgen receptor signaling (AID 588516). Conditions: AR-UAS-bla HEK293, beta-lactamase ratio, antagonist mode, 16 h; measured here: W460 blue channel fit. An outline of the steps:
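Antagonist-mode qHTS: inhibition of R1881 (10 nM)-driven beta-lactamase expression in GripTite HEK 293 cells is measured after 16 h; values are Hill-derived IC50s normalized between R1881 and DMSO wells.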

The nature of experiment [11]: qHTS assay for small molecule antagonists of vitamin D receptor signaling (AID 588541). The note with it: HEK293T VDR-UAS-bla, beta-lactamase ratio, antagonist mode; measured here: W460 blue channel (cell viability).
Where [12] appears, read: TFE3-RCC UOK109 viability, measured here: UOK109 Z-AUC.
[13] abbreviates: TFE3-RCC viability, measured here: UOK124 Z-AUC.
Setting [14] is: TFE3-RCC viability, measured here: UOK124 cell viability.
The mark [15] stands for this setting: TFE3-RCC viability, measured here: UOK145 Z-AUC.
Setting [16] is: TFE3-RCC viability, measured here: UOK145 cell viability.
Setting [17] is: measured here: 460 nm blue channel.
The mark [18] stands for this setting: measured here: red reporter channel AC50, EF-alpha promoter control reporter in MSC80 mouse Schwann cells.
[19] abbreviates: measured here: CBR control luciferase (viability counter).
Where [20] appears, read: measured here: CBG/CBR ratio read-out.
Setting [21] is: measured here: green reporter channel AC50, mouse Pmp22 promoter in mouse Schwann cells.

For orientation: AC50 means the concentration giving half of the maximal activity seen. Consider `CNCC[C@H](Oc1cccc2ccccc12)c1cccs1`, for which the half-maximal activity concentration (AC50) in experiment [1] is 7.08 µM [falling, partial curve]; in experiment [2] (setting [14]), 20.9 µM [falling, partial curve]; in experiment [2] (setting [16]), 7.43 µM [falling, full curve]. Further, the z-score in [2] (setting [12]) was -1.02; in experiment [2] (setting [13]), 0.448; in [2] (setting [15]), -0.51.

Take `Cc1cccc(C)c1OCC(=O)N[C@@H](Cc1ccccc1)[C@@H](O)C[C@H](Cc1ccccc1)NC(=O)[C@H](C(C)C)N1CCCNC1=O`: the AC50 was 4.46 µM [falling, partial curve, poor fit] in experiment [3] (setting [17]); 3.55 µM [falling, partial curve, poor fit] in experiment [1]; 18.7 µM [falling, partial curve] in experiment [2] (setting [14]). For the same molecule, the z-score in experiment [2] (setting [12]) was 0.266; in experiment [2] (setting [13]) it was 0.183; in experiment [2] (setting [15]) it was 0.406.

For `CCc1cccc2c3c([nH]c12)C(CC)(CC(=O)O)OCC3` (centres undefined), the AC50 in experiment [4] (setting [18]) was 84.9 µM [falling, single point]; in experiment [1], 35.5 µM [rising, single point].

On to `OCCOCCN1CCN(C(c2ccccc2)c2ccc(Cl)cc2)CC1` (centres undefined), for which, in experiment [5], the max response is 52.4%. In [1], the AC50 is 8.91 µM [falling, partial curve].

`CC(C)(C)c1ccc(O)c(O)c1`: the AC50 is 28.2 µM [falling, single point] in [6] and 63.1 µM [falling, partial curve, poor fit] in [1]. For the same molecule, the max response in experiment [7] is 15.2% and -11.8%.

`CCCOC(=O)c1ccc(O)cc1`: in experiment [5], the max response is -22.4%. Also, the half-maximal activity concentration (AC50) in [8] is 4.47 µM [falling, partial curve, poor fit] and 39.8 µM [falling, partial curve]; in experiment [1], 12.6 µM [falling, partial curve, poor fit].

With `Cc1cc(=O)c2c(O)c3c(O)cc(=O)c4c3c3c(cc(O)c1c23)C(C)(C)C=4O`, the AC50 in experiment [3] (setting [17]) is 14.1 µM [falling, single point]; in experiment [3] (measured here: 530 nm viability channel) it was 11.2 µM [falling, single point]; in experiment [1], 1.12 µM [falling, full curve, poor fit]; in [2] (setting [14]), 1.18 µM [falling, full curve]; in experiment [2] (setting [16]) it was 20.9 µM [falling, partial curve]. Moreover, the figures for the z-score in experiment [2] (setting [12]), in experiment [2] (setting [13]) and in [2] (setting [15]) were -0.288, -0.182 and 0.549, respectively.

`O=c1c(O)c(-c2ccc(O)c(O)c2)oc2cc(O)cc(O)c12`: the half-maximal activity concentration (AC50) is 23.1 µM [falling, partial curve] in [9] (setting [19]) and 5.01 µM [falling, full curve, poor fit] in [1]. For the same molecule, the results for the z-score in experiment [2] (setting [12]), in [2] (setting [13]) and in [2] (setting [15]) were 0.387, 0.306 and 0.518, respectively.

In the case of `O=C1Cc2cc(CCN3CCN(c4nsc5ccccc45)CC3)c(Cl)cc2N1`, the AC50 in experiment [9] (setting [20]) is 18.4 µM [falling, partial curve]; in experiment [9] (setting [19]), 29.1 µM [falling, single point]; in experiment [1] it was 3.55 µM [falling, full curve, poor fit]; in experiment [2] (setting [14]) it was 33.2 µM [falling, single point]. The z-score in experiment [2] (setting [12]) stood at 0.159; in [2] (setting [13]), 0.288; in experiment [2] (setting [15]) it was 0.436.

Turning to `CCCC(=O)c1cc(O)c(O)cc1O`, the AC50 in experiment [10] is 70.8 µM [rising, single point]; in experiment [1], 63.1 µM [falling, single point].

Consider `COc1ccccc1N1CCN(CC(O)COc2cccc3ccccc23)CC1` (centres undefined), for which the AC50 in experiment [4] (setting [21]) was 75.7 µM [falling, partial curve]; in experiment [4] (setting [18]) it was 75.7 µM [falling, partial curve]; in experiment [9] (setting [20]), 16.4 µM [falling, partial curve]; in [1] it was 35.5 µM [falling, single point].

Take `NCCc1ccc(O)c(O)c1`: the AC50 in [4] (setting [21]) was 67.5 µM [falling, partial curve]; in experiment [4] (setting [18]) it was 75.7 µM [falling, partial curve]; in [1], 7.08 µM [rising, partial curve, poor fit].

As for `NCCNc1cccc2ccccc12`, the AC50 in experiment [10] was 44.7 µM [falling, partial curve, poor fit]; in experiment [8] it was 39.8 µM [falling, partial curve]; in experiment [11] it was 35.5 µM [falling, partial curve]; in [1], 14.1 µM [falling, single point]. Moreover, the max response in [5] was 63.1%; in [7] it was -46.6%.

Turning to `C[N+](C)(C)CCCCCC[N+](C)(C)C`, the AC50 in [4] (setting [18]) is 84.9 µM [falling, single point]; in experiment [1] it was 1 µM [falling, partial curve, poor fit].

Take `Oc1ccc(Cl)cc1Cc1cc(Cl)ccc1O`: the max response in experiment [5] was -12.3% and -45.9%. In experiment [1], the concentration at half-maximal activity (AC50) was 31.6 µM [falling, single point].

As for `Fc1ccc([C@@H]2CCNC[C@H]2COc2ccc3c(c2)OCO3)cc1`, the half-maximal activity concentration (AC50) in experiment [4] (setting [21]) was 19 µM [falling, full curve]; in [4] (setting [18]) it was 26.9 µM [falling, full curve]; in experiment [9] (setting [20]), 16.4 µM [falling, single point]; in experiment [1], 35.5 µM [falling, single point]; in [2] (setting [14]), 18.7 µM [falling, partial curve]. Further, the z-score in [2] (setting [12]) was 0.307; in experiment [2] (setting [13]), 0.408; in experiment [2] (setting [15]), -0.104.
